Data as given in PMC5112231.
These are yes or no findings as the source states them, for the method shown. Some results given as binding are weak or reduced against the parent protein; the word gives no strength.

Amino acid sequences for entries named in this document (tags omitted).
UniProt P0A1N2: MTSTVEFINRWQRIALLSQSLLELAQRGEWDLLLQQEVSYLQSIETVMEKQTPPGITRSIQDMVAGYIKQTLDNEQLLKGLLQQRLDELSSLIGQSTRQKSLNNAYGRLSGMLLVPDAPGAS
UniProt P17424: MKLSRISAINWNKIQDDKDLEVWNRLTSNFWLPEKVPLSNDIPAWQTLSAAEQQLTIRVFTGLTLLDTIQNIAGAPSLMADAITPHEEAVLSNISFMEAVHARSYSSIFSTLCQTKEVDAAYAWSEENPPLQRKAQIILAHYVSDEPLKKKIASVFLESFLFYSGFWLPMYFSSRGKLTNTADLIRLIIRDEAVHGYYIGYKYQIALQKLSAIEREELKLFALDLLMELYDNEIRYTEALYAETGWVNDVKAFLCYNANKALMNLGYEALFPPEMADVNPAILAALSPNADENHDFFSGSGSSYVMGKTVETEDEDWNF

T1: acetyltransferase Pat (protein acetyltransferase), pUT18-pat bait (Salmonella Typhimurium) (UniProt Q8ZMX2)
T1 sequence: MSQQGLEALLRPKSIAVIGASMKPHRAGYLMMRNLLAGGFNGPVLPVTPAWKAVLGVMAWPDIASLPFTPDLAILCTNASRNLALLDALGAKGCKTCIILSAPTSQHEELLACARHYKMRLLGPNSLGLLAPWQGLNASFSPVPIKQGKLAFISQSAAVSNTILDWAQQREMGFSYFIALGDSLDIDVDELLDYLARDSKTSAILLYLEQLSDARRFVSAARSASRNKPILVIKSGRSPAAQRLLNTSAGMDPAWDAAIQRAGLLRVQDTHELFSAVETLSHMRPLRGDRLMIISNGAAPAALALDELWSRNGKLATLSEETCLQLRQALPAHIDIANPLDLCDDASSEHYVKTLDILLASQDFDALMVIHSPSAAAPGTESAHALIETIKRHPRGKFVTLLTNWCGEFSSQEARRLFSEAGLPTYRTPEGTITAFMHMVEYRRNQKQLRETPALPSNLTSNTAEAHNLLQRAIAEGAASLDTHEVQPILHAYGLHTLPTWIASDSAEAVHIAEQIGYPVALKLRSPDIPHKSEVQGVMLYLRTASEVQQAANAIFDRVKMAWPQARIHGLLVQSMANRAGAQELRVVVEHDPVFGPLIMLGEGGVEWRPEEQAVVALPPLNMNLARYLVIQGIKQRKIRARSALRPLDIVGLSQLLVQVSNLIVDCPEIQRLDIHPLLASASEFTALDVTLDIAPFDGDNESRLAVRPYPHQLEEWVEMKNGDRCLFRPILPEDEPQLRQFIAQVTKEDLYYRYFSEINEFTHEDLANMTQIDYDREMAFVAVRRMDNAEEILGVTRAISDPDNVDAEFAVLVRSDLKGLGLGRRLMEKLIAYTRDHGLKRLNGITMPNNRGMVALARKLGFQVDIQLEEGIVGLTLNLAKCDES

B1: Lrp (leucine-responsive regulatory protein), full-length gene in pKT25 (protein, UniProt P0A2S0 1-164)
chain: MVDSKKRPGKDLDRIDRNILNELQKDGRISNVELSKRVGLSPTPCLERVRRLERQGFIQGYTALLNPHYLDASLLVFVEITLNRGAPDVFEQFNAAVQKLEEIQECHLVSGDFDYLLKTRVPDMSAYRKLLGETLLRLPGVNDTRTYVVMEEVKQSNRLVIKTR
B2: RhaR, full-length gene in pKT25 (protein, UniProt P40865 1-282)
chain: MANQLILLKKDFFTDEQQAVTVADRYPQDVFAEHTHEFCELVMVWRGNGLHVLNERPYRITRGDLFYIRAEDKHSYTSVNDLVLQNIIYCPERLKLNVNWQAMIPGFQGAQWHPHWRLGSMGMNQARQVINQLEHESNGRDPLANEMAELLFGQLVMTLKRHRYATDDLPATSRETLLDKLITALANSLECPFALDAFCQQEQCSERVLRQQFRAQTGMTINQYLRQVRICHAQYLLQHSPLMISEISMQCGFEDSNYFSVVFTRETGMTPSQWRHLSNQSD

target: T1, acetyltransferase Pat (protein acetyltransferase), pUT18-pat bait (Salmonella Typhimurium); assay: two-hybrid; bacterial adenylate cyclase two-hybrid, pairwise: full-length genes in pKT25 co-transformed with pUT18-pat into E. coli BTH101, spotted onto screening medium (X-gal, IPTG); blue colonies mean interaction

binding	Molecule
binds	FliT, full-length gene in pKT25 (from UniProt P0A1N2 1-122)
binds	NrdF, full-length gene in pKT25 (from UniProt P17424 1-319)
binds	B1
binds	B2
